No constants are given. Whether binding was seen depends on the method and setting. Binding seen in cells or lysates may run through a third protein. A yes stands for co-enrichment or nearness to the bait. Other partners may have been found. Tags and fused reporters may be left off the sequences shown.
Target: T1, STAT1-TurboID-V5 (mouse) (UniProt P42225)
T1 sequence: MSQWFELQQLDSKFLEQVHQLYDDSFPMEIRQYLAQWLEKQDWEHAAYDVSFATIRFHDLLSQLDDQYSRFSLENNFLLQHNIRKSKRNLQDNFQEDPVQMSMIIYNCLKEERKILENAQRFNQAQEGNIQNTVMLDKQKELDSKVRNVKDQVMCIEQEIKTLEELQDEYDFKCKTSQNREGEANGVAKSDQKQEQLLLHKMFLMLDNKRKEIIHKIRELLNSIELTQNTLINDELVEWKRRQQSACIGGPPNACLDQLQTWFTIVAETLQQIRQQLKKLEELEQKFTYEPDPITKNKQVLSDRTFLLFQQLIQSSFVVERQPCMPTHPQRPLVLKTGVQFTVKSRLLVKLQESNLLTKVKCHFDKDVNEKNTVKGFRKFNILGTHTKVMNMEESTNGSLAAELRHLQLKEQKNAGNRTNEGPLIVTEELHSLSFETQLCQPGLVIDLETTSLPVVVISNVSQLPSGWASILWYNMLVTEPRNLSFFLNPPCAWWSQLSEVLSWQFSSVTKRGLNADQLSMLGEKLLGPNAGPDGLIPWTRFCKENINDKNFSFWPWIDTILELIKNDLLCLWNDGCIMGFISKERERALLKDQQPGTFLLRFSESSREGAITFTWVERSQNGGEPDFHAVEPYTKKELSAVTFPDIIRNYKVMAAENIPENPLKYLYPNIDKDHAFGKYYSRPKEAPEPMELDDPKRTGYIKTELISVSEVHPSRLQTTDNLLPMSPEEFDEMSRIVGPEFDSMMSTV
Experiment: proximity labelling; TurboID; STAT1-TurboID-V5 (STAT1-BirA*) in Stat1-/- RAW 264.7 cells, Dox 24 h, untreated or IFNβ or IFNγ 3 h, 500 µM biotin 10 min; nuclear extracts, streptavidin beads, mass spectrometry; log2FC >= 1 above BirA*-NLS control, Padj <0.05

Protein sequences, listed by entry. Tags and fused reporters are not part of them.
UniProt Q8CHK4: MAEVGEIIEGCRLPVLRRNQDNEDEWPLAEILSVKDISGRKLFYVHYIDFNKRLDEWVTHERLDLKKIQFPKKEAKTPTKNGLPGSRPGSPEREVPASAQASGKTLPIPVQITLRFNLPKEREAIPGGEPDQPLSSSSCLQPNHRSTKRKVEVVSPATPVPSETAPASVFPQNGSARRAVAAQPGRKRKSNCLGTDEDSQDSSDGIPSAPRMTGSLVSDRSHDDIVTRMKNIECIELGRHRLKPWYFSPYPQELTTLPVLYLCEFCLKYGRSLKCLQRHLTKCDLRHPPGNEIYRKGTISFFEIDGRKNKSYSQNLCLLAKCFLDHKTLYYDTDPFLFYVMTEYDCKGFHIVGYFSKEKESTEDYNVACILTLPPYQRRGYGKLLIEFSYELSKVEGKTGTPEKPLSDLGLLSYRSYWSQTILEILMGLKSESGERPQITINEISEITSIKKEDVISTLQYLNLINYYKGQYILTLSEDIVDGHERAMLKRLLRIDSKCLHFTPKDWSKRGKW
UniProt Q62481: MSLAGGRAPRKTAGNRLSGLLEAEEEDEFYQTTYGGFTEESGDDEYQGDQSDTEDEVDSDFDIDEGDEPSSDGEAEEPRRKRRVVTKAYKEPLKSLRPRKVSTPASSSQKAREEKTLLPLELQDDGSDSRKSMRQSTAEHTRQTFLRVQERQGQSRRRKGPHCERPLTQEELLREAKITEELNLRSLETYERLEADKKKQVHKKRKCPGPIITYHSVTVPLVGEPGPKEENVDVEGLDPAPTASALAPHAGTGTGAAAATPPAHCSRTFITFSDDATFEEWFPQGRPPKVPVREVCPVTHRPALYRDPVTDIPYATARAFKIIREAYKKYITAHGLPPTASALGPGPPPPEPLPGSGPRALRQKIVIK
UniProt E9Q616: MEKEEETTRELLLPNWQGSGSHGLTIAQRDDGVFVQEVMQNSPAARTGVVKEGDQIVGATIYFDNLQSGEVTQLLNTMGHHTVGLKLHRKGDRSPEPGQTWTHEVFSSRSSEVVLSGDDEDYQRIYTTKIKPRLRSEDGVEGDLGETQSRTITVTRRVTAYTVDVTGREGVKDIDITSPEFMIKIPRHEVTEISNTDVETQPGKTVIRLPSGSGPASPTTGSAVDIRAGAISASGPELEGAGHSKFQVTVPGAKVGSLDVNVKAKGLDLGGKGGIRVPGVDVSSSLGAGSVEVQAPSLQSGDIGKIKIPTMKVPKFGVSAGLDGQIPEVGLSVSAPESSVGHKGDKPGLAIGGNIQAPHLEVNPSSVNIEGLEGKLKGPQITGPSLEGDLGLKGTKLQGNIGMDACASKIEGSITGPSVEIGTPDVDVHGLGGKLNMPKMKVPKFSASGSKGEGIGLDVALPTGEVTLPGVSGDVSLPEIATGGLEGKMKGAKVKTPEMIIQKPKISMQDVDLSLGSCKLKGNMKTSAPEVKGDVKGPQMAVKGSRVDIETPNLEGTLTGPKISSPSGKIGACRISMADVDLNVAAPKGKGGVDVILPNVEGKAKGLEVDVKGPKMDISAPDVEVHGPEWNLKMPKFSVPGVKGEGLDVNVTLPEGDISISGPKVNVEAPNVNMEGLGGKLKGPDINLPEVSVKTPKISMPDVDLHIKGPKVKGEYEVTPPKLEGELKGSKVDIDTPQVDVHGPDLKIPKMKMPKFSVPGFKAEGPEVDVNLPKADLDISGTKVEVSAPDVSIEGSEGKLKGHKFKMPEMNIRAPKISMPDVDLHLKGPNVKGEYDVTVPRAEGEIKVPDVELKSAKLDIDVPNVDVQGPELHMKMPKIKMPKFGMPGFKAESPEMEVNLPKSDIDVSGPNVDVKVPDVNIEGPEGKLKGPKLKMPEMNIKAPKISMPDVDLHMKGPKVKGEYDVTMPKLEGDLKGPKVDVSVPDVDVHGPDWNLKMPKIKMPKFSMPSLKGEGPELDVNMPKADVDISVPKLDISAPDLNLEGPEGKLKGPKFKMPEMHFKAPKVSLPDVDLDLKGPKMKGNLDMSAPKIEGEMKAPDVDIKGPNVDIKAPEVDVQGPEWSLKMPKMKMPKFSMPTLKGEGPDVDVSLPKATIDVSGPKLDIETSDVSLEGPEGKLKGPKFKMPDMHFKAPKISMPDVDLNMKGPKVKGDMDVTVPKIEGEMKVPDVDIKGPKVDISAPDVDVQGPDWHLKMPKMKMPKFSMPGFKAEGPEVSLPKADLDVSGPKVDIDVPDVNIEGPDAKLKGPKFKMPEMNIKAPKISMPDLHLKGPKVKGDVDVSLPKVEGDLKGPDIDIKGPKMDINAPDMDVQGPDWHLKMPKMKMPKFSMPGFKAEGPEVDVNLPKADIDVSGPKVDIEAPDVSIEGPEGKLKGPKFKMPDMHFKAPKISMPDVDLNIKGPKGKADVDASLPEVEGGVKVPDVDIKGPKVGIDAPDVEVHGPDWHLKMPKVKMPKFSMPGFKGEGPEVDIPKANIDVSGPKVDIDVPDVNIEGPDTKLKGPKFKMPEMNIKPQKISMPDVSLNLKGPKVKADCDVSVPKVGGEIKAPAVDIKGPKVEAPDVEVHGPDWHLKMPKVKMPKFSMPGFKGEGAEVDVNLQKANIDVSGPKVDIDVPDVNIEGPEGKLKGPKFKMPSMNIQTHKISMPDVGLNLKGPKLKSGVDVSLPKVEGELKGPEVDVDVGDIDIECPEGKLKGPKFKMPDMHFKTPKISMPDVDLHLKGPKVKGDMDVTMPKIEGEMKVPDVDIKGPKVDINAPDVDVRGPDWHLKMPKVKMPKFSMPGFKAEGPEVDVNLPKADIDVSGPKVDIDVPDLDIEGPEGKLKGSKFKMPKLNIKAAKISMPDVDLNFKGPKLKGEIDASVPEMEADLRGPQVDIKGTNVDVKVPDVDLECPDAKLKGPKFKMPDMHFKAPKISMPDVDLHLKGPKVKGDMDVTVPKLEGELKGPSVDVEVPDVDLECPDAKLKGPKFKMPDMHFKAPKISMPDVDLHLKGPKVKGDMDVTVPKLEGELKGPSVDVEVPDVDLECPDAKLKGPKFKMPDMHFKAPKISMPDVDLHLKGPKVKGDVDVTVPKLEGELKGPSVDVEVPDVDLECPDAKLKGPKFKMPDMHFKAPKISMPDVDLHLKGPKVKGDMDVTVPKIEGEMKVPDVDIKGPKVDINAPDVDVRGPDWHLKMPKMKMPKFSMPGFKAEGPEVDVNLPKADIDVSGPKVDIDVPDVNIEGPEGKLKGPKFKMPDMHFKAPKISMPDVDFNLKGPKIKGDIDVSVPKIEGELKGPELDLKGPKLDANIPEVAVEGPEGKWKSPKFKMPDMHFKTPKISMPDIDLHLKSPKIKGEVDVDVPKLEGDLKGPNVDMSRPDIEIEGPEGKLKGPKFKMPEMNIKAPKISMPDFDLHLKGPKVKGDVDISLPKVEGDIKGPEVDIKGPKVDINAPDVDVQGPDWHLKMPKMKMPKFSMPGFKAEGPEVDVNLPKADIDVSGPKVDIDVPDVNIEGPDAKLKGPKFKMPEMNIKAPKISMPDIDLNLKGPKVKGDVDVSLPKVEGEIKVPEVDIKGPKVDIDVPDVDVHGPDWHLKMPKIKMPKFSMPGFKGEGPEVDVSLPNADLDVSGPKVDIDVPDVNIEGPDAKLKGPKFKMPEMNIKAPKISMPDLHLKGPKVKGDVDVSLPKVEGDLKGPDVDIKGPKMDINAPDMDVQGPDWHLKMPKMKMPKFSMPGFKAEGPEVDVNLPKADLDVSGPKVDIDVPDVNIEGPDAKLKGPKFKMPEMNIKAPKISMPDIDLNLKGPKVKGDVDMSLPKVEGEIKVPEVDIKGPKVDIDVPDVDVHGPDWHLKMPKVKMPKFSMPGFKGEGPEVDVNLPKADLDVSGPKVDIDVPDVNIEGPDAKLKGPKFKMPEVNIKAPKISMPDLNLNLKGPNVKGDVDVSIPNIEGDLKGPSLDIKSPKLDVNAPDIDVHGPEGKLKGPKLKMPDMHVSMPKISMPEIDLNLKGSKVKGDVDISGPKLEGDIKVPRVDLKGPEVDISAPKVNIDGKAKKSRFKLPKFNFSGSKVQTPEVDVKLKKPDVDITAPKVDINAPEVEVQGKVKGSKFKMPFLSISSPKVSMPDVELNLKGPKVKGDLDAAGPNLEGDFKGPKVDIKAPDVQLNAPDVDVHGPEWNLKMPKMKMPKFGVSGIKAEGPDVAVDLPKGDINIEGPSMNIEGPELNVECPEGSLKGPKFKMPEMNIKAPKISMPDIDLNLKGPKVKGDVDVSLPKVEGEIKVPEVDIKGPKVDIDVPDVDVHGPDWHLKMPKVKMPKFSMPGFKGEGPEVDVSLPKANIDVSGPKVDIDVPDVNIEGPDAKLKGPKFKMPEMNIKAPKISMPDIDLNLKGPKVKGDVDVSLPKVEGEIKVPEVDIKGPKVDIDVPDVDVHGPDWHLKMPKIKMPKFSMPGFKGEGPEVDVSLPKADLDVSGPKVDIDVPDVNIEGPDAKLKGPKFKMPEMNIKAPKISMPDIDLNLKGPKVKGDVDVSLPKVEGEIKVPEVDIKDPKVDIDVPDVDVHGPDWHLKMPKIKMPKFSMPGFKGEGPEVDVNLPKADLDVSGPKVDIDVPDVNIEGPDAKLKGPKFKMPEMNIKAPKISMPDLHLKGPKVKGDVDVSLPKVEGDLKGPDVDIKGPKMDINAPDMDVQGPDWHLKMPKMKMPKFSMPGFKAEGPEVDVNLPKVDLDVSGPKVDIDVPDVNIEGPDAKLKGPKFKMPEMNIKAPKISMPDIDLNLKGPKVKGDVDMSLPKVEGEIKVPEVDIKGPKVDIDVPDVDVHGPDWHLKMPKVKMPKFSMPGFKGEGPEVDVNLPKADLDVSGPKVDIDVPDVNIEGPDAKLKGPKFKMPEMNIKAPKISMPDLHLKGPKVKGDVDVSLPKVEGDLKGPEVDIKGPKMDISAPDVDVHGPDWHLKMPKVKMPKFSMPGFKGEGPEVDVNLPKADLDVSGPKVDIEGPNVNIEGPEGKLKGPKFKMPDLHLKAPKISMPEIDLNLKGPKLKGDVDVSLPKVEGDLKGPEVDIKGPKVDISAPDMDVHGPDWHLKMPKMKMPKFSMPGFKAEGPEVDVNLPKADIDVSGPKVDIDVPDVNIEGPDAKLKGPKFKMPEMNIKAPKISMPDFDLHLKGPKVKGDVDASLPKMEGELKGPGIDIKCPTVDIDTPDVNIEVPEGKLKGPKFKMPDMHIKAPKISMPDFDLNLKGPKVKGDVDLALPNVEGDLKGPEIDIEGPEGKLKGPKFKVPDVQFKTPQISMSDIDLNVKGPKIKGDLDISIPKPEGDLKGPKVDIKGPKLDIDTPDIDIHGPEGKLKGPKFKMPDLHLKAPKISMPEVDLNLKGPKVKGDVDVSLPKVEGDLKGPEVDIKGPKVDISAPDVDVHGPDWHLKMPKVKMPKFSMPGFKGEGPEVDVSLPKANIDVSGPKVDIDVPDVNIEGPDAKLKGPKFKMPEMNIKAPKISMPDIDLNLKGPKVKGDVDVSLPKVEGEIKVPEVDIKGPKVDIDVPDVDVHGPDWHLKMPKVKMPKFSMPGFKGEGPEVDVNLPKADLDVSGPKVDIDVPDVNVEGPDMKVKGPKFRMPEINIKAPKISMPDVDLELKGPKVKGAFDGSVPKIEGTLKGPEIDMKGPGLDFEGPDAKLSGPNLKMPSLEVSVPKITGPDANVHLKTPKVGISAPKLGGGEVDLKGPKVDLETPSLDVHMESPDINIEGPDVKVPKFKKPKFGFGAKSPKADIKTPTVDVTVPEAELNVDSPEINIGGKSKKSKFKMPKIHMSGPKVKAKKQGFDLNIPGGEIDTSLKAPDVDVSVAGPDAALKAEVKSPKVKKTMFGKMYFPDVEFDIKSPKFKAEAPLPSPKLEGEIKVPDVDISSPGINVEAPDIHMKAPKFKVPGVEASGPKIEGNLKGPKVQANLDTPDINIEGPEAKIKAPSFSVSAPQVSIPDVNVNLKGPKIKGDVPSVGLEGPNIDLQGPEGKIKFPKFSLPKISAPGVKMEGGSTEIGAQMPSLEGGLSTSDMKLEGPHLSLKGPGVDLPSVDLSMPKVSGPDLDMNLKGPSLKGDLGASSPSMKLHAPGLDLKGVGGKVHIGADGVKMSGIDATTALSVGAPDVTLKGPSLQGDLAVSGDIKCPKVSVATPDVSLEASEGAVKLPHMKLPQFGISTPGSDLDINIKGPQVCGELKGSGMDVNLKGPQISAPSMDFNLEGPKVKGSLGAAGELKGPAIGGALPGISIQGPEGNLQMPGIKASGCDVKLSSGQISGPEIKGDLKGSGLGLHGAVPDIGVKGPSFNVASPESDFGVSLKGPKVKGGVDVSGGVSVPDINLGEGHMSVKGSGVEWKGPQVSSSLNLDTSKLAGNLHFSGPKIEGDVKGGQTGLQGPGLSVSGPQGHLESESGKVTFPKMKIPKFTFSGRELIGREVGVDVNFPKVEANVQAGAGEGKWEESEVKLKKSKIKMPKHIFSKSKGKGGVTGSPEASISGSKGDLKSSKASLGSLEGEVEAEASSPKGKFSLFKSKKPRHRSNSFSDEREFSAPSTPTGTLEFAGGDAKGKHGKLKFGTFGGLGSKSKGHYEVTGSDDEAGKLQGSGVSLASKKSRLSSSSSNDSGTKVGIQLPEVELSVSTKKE

Row | Substance | binding
1 | EP400 (from UniProt Q8CHI8 1-3072) | binds
2 | Gemin5 (from UniProt Q8BX17 1-1502) | binds
3 | KAT5 (from UniProt Q8CHK4 1-513) | binds
4 | VPS72 (from UniProt Q62481 1-368) | binds

Now from value to substance:

Row | binding | Substance
5 | binds | AHNAK (from UniProt E9Q616 1-5656)
6 | binds | Al607873 (mouse (endogenous in RAW 264.7))
7 | binds | Parp14 (from UniProt Q2EMV9 1-1817)

— publication PMC11148166
